In patent US20050215770A1:
No constants are given. Whether binding was seen depends on the method and setting. Some entries that bind do so weakly or less than the wild type. Tags and fused reporters may be left off the sequences shown.

Molecular target: T1, Recombinant soluble human Flag-tagged NogoR (amino acids 1 to 309 of SEQ ID NO:2) (human) (UniProt Q9BZR6)
T1 sequence (chain, biotinylated with Sulfo-NHS-LC-Biotin): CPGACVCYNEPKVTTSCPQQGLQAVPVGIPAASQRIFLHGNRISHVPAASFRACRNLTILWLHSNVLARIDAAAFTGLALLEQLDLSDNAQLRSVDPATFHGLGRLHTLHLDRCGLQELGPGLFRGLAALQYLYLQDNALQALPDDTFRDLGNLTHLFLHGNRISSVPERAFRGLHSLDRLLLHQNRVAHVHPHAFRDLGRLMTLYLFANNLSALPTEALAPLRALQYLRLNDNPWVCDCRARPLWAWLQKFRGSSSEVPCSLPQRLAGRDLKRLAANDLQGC
Assay: ECL matrix titration of biotin-rHuNOGOSR-Flag against Ori-TAG Rat MAG-Fc on streptavidin beads

B1: Recombinant Rat MAG-Fc (R&D Systems) (Fc fusion, UniProt P07722 20-516, looked up, not shown: a dimerising Fc or GST)
chain: GHWGAWMPSSISAFEGTCVSIPCRFDFPDELRPAVVHGVWYFNSPYPKNYPPVVFKSRTQVVHESFQGRSRLLGDLGLRNCTLLLSTLSPELGGKYYFRGDLGGYNQYTFSEHSVLDIINTPNIVVPPEVVAGTEVEVSCMVPDNCPELRPELSWLGHEGLGEPTVLGRLREDEGTWVQVSLLHFVPTREANGHRLGCQAAFPNTTLQFEGYASLDVKYPPVIVEMNSSVEAIEGSHVSLLCGADSNPPPLLTWMRDGMVLREAVAESLYLDLEEVTPAEDGIYACLAENAYGQDNRTVELSVMYAPWKPTVNGTVVAVEGETVSILCSTQSNPDPILTIFKEKQILATVIYESQLQLELPAVTPEDDGEYWCVAENQYGQRATAFNLSVEFAPIILLESHCAAARDTVQCLCVVKSNPEPSVAFELPSRNVTVNETEREFVYSERSGLLLTSILTLRGQAQAPPRVICTSRNLYGTQSLELPFQGAHRLMWAKIGP
modifications: labelled with Ori-TAG (Origen-TAG-NHS)
B1 was tested, and the binding was “binds”.
